{"source": "PubChem BioAssay AID504834", "about": "(National Center for Advancing Translational Sciences (NCATS), 2011)", "note": "Out of some 320,000 compounds screened, about 22,000 (6.9%) were called active. The inconclusive results got no clear call from the source; some entries with a clear call stand among them for comparison. The call rests on the fitted dose curve; in most records, active means well fitted inhibition curve with a large enough effect; inconclusive means small, poorly fitted or top-dose-only effect, or another doubt; inactive means no such curve, though single readings can be large or run the other way. Where the call is inconclusive, the potency comes from a doubtful curve fit. Potency means the concentration at half of the fitted maximal effect."}
{"assay": "Primary qHTS for delayed death inhibitors of the malarial parasite plastid, 96 hour incubation", "conditions": "P. falciparum luciferase reporter growth; series mostly up to 28.7 µM", "procedure,_shortened": "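Delayed-death screen, second-generation endpoint: infected erythrocytes, 2% hematocrit, 0.05% parasitemia final; 96 hours at 37 C, 5% CO2; luciferase detection reagent; luminescence decrease equals reduced growth.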"}
{"compound": "CCN(CC)c1nc2n(c(=S)n1)CCS2", "Potency": "inconclusive: 11.7 µM [inhibitor, single point]"}
{"compound": "CCc1ccc(-c2ccc3nnc(SCC(N)=O)n3n2)cc1", "Potency": "inactive"}
{"compound": "COc1ccc(OCC(=O)Nc2ccc3c(c2)nc(CCNC(C)=O)n3C)cc1", "Potency": "inconclusive: 6.57 µM [inhibitor, partial curve]"}
{"compound": "CCOc1ccc(NC(=O)CN(C)C(=O)C2CC(=O)N(Cc3ccco3)C2)cc1OCC", "note": "(stereo not given)", "Potency": "inconclusive: 10.4 µM [inhibitor, partial curve, poor fit]"}
{"compound": "COc1ccccc1-n1cnc2sc(-c3ccccc3)cc2c1=O", "Potency": "inactive"}
{"compound": "C=CCNC(=O)COC(=O)c1c2c(nc3ccccc13)CCC2", "Potency": "inconclusive: 11.7 µM [inhibitor, single point]"}
{"compound": "CCOC(=O)N1CCN(C(=O)c2cc(COc3ccc(OC)cc3Cl)on2)CC1", "Potency": "inconclusive: 5.22 µM [inhibitor, partial curve]"}
{"compound": "NC(=O)c1cc([N+](=O)[O-])ccc1N1CCCCC1", "Potency": "inactive"}
{"compound": "COc1ccc(NS(=O)(=O)c2ccc(C)c(C(=O)NCC(c3cccs3)N3CCOCC3)c2)cc1", "note": "(stereo not given)", "Potency": "inconclusive: 18.5 µM [inhibitor, single point]"}
{"compound": "COc1ccc(/C=N/NC(=O)c2cccc(Br)c2)cc1CSc1ccccn1", "Potency": "inconclusive: 13.1 µM [inhibitor, single point]"}
{"compound": "Nc1ccc(OCc2ccccc2)cc1", "Potency": "inconclusive: 4.15 µM [inhibitor, single point]"}
{"compound": "COc1ccc(-n2c(SCc3ccccn3)nc3c(c2=O)SCC3)cc1OC", "Potency": "inconclusive: 0.0738 µM [inhibitor, full curve, poor fit]"}
{"compound": "Cc1ccc(C(=O)Nc2cc(C(C)C)c(O)c(C(C)C)c2)cc1", "Potency": "inconclusive: 11.7 µM [inhibitor, single point]"}
{"compound": "CCOC(=O)C1=C(O)C(=O)N(c2ccccc2)C1c1cccc([N+](=O)[O-])c1", "note": "(stereo not given)", "Potency": "inactive"}
{"compound": "CCCC(C(=O)Nc1nccs1)c1ccccc1", "note": "(stereo not given)", "Potency": "inconclusive: 0.0083 µM [inhibitor, full curve, poor fit]"}
{"compound": "COc1ccccc1Oc1ccc(-c2cnc3ccccc3n2)cc1[N+](=O)[O-]", "Potency": "inactive"}
{"compound": "COc1ccccc1NS(=O)(=O)c1cccc(C(=O)N2CCN(C(=O)c3ccco3)CC2)c1", "Potency": "inconclusive: 18.5 µM [inhibitor, single point]"}
{"compound": "CSc1ccccc1C(=O)N1CCCC(CCC(=O)NCc2ccc(F)c(F)c2)C1", "note": "(stereo not given)", "Potency": "inconclusive: 9.28 µM [inhibitor, partial curve]"}
{"compound": "O=C(Cn1c(-c2ccco2)nc2ccccc21)N1CCCCC1", "Potency": "inactive"}
{"compound": "C=CCN(CC=C)C(=O)COC(=O)c1ccc(Sc2ncn[nH]2)c([N+](=O)[O-])c1", "Potency": "inconclusive: 0.37 µM [inhibitor, full curve, poor fit]"}
{"compound": "O=C(N/N=C/c1cc(Cl)ccc1O)c1cccnc1", "Potency": "inconclusive: 18.5 µM [inhibitor, single point]"}
{"compound": "O=C(OCc1nnc(-c2ccccc2)o1)c1cc(S(=O)(=O)N2CCOCC2)c(Cl)cc1Cl", "Potency": "inconclusive: 9.28 µM [inhibitor, partial curve]"}
{"compound": "COc1ccc(CCC(=O)OCc2csc(CC(=O)Nc3ccccc3C)n2)cc1", "Potency": "inactive"}
{"compound": "O=C(Cc1ccccc1F)Nc1cc(S(=O)(=O)N2CCCC2)ccc1Cl", "Potency": "inconclusive: 18.5 µM [inhibitor, single point]"}
{"compound": "CCCN1CCC(=O)N(CCOc2ccccc2)CC1", "Potency": "inactive"}
{"compound": "CCOC(=O)N1CCN(C(=O)CN(Cc2ccc(Cl)cc2)S(=O)(=O)c2ccccc2)CC1", "Potency": "inconclusive: 10.4 µM [inhibitor, partial curve, poor fit]"}
{"compound": "CN(C)C(=O)CSc1nc2ccc(C(=O)c3ccccc3)cc2[nH]1", "Potency": "inconclusive: 18.5 µM [inhibitor, single point]"}
{"compound": "COc1ccc(OC)c(CN2CCN(C(=O)[C@@H](NC(=O)c3cccc(C)c3)C(C)C)CC2)c1", "Potency": "inconclusive: 18.5 µM [inhibitor, single point]"}
{"compound": "O=[N+]([O-])c1ccc(C[n+]2ccccc2)cc1", "Potency": "inconclusive: 18.5 µM [inhibitor, single point]"}
{"compound": "CCCc1[nH]nc2c1C(/C(C)=C/c1ccccc1)C(C#N)=C(N)O2", "note": "(stereo not given)", "Potency": "inconclusive: 9.28 µM [inhibitor, single point]"}
{"compound": "CCC(C)NC(=O)CSC1=Nc2ccccc2C2=NC(c3ccccc3)C(=O)N12", "note": "(stereo not given)", "Potency": "inactive"}
{"compound": "CC1CN(c2nc3c(c(=O)n(Cc4ccc(Cl)cc4)c(=O)n3C)n2C)CC(C)O1", "note": "(stereo not given)", "Potency": "active: 2.33 µM"}
{"compound": "COc1ccc(NC(=O)CCCN2C(=O)C(c3ccccc3)Oc3cccnc32)c(OC)c1", "note": "(stereo not given)", "Potency": "inconclusive: 1.85 µM [inhibitor, full curve]"}
{"compound": "C[C@H](NC(=O)c1nc[nH]c1C(=O)NCc1ccc(CNC(=O)OC(C)(C)C)cc1)c1ccccc1", "Potency": "inconclusive: 11.7 µM [inhibitor, single point]"}
{"compound": "CCc1ccc(N2CC(C(=O)Nc3cccc(S(=O)(=O)N4CCCC4)c3)CC2=O)cc1", "note": "(stereo not given)", "Potency": "inconclusive: 16.5 µM [inhibitor, single point]"}
{"compound": "COc1ccc(CNC(=O)c2ccc(S(=O)(=O)N3CCCC3)cc2)cc1OC", "Potency": "inconclusive: 14.7 µM [inhibitor, partial curve]"}
{"compound": "CCC1(C)CC2(CCCN(CCC(=O)c3ccccc3)C2)CCO1", "note": "(stereo not given)", "Potency": "inconclusive: 2.94 µM [inhibitor, full curve, poor fit]"}
{"compound": "O=C(CN1C(=O)S/C(=C\\c2ccc(Cl)cc2)C1=O)NNC(=O)c1ccccc1O", "Potency": "inconclusive: 18.5 µM [inhibitor, single point]"}
{"compound": "CCOC(=O)c1oc2ccc(Br)cc2c1CSc1nnc(C)s1", "Potency": "inactive"}
{"compound": "CCN(CC)S(=O)(=O)c1ccc(OC(C)C)c(NC(=O)C2=COCCO2)c1", "Potency": "active: 8.28 µM"}
{"compound": "O=C(N/N=C/c1ccccn1)c1c[nH]c2ccccc12", "Potency": "inconclusive: 18.5 µM [inhibitor, single point]"}
{"compound": "Cc1cc2oc(C(=O)Nc3nonc3C)c(C)c2cc1C", "Potency": "inconclusive: 18.5 µM [inhibitor, single point]"}
{"compound": "CC1CCCCN1CCCNC(=O)c1ccc2c(=O)n(CCc3ccccc3)c(=O)[nH]c2c1", "note": "(stereo not given)", "Potency": "inactive"}
{"compound": "COc1ccc(N2CCC(CNC(=S)Nc3cc(C)ccc3C)C2)cc1", "note": "(stereo not given)", "Potency": "inconclusive: 6.57 µM [inhibitor, partial curve]"}
{"compound": "Cc1ccc(NC(=O)CC(=O)c2ccc([N+](=O)[O-])cc2)cc1S(=O)(=O)Nc1cccc(Cl)c1", "Potency": "inconclusive: 18.5 µM [inhibitor, single point]"}
{"compound": "CC(C)c1ccc(NC(=O)COc2nncc3ccccc23)cc1", "Potency": "inactive"}
{"compound": "CCOc1ccc(OCC)c(NC(=O)CN2CCN(c3cccc(C)c3)CC2)c1", "Potency": "inactive"}
{"compound": "CCN(CC)C(=O)Cn1ccc(NC(C)=O)nc1=O", "Potency": "inconclusive: 16.5 µM [inhibitor, single point]"}
{"compound": "Cc1ccc(NC2CCCN(C(=O)c3ccccn3)C2)cc1C", "note": "(stereo not given)", "Potency": "active: 13.1 µM"}
{"compound": "S=C(NCc1ccccc1)NCc1cccc(CNC(=S)NCc2ccccc2)c1", "Potency": "inactive"}
{"compound": "O=C(CSc1nc2ccccc2[nH]1)Nc1ccc(F)cc1", "Potency": "inactive"}
{"compound": "Cc1cccn2c(=O)c3cc(C(=O)NC4CCCC4)sc3nc12", "Potency": "inconclusive: 18.5 µM [inhibitor, single point]"}
{"compound": "Cc1cc(=O)[nH]c(N/N=C/c2ccccn2)n1", "Potency": "inconclusive: 14.7 µM [inhibitor, partial curve, poor fit]"}
{"compound": "COc1cc(O)c(C(C)=O)c(CC(=O)O)c1", "Potency": "inconclusive: 10.4 µM [inhibitor, partial curve, poor fit]"}
{"compound": "O=C1c2ccsc2SCCN1Cc1c(Cl)cccc1Cl", "Potency": "active: 6.57 µM"}
{"compound": "O=C(NCC1CCCO1)c1ccccc1OCc1ccc(Cl)cc1", "note": "(stereo not given)", "Potency": "inconclusive: 11.7 µM [inhibitor, partial curve, poor fit]"}
{"compound": "COc1cc(OC)cc(C(=O)NC(C)c2cnn(-c3ccccc3C)c2C)c1", "note": "(stereo not given)", "Potency": "inactive"}
{"compound": "OCC1CCCCN1C(=S)NCc1ccco1", "note": "(stereo not given)", "Potency": "inconclusive: 18.5 µM [inhibitor, partial curve, poor fit]"}
{"compound": "COc1ccc(C(=O)NC(=S)NNC(=O)[C@H]2C[C@@H]2c2ccccc2)cc1OC", "Potency": "active: 1.47 µM"}
{"compound": "COc1ccc(C(=O)NC2CCCc3ccccc32)cc1[N+](=O)[O-]", "note": "(stereo not given)", "Potency": "inconclusive: 14.7 µM [inhibitor, single point]"}
{"compound": "O=[N+]([O-])c1ccc(NCc2ccc(Cl)cc2)c2ccncc12", "Potency": "inconclusive: 20.8 µM [inhibitor, partial curve, poor fit]"}
{"compound": "CCO[C@H]1OC(C(=O)NC2CC2)=C[C@@H](c2ccc(C(F)(F)F)cc2)[C@@H]1CCCO", "Potency": "inconclusive: 9.28 µM [inhibitor, single point]"}
{"compound": "CCOc1ccc(OCC)c(NC(=O)CN2CCN(CC(=O)NC(C)C)CC2)c1", "Potency": "active: 13.1 µM"}
{"compound": "COc1ccc(-n2cnc3cc(C(=O)N4CCC5(CC4)OCCO5)ccc32)cc1", "Potency": "inconclusive: 5.22 µM [inhibitor, partial curve, poor fit]"}
{"compound": "O=C(COc1ccc(S(=O)(=O)N2CCCCC2)cc1)NCc1ccccn1", "Potency": "inactive"}
{"compound": "FC(F)(F)c1cc(-c2ccccc2)nc(N2CCCCCC2)n1", "Potency": "inactive"}
{"compound": "COc1cccc(NC(=O)CCCCCn2nnc3ccccc3c2=O)c1", "Potency": "inconclusive: 5.86 µM [inhibitor, single point]"}
{"compound": "CCc1ccc(NC(=O)CCc2ccc(CC)o2)cc1", "Potency": "inconclusive: 18.5 µM [inhibitor, single point]"}
{"compound": "COCc1nnc(NC(=O)CSCc2ccccc2)s1", "Potency": "inactive"}
{"compound": "O=C(COC(=O)CNC(=O)c1ccc(Cl)cc1)Nc1ccc2c(c1)OCCO2", "Potency": "inactive"}
